This is one part of the list.

The chains behind the UniProt entries cited, without tags or fusion partners. Where a name states a change or a piece, a line headed by the entry shows the natural chain unless it says otherwise.
UniProt Q9NVH0: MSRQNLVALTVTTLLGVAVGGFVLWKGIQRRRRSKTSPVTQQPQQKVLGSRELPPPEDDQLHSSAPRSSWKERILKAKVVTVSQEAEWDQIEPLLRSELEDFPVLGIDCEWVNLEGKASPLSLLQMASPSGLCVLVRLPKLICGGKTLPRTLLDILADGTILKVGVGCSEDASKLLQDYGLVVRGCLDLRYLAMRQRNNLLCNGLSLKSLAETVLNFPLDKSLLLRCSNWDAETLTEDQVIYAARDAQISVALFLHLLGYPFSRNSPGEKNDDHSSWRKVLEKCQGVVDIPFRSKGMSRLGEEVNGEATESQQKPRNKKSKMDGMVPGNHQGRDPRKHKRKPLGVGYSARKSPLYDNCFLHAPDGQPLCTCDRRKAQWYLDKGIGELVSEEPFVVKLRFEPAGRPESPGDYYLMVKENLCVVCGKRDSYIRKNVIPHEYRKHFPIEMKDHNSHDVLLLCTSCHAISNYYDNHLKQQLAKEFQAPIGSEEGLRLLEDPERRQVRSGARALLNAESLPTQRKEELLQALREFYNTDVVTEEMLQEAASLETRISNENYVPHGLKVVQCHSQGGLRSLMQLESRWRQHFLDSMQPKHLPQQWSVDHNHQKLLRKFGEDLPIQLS
UniProt Q96C23: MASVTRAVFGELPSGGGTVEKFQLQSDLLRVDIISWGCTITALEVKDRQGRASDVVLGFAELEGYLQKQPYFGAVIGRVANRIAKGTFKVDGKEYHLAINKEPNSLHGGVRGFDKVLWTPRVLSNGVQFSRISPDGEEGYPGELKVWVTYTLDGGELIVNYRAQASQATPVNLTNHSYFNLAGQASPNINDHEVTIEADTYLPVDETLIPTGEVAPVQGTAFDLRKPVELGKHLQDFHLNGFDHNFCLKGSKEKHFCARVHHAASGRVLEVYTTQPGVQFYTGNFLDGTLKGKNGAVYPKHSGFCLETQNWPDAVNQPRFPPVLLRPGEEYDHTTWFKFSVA
UniProt Q8IWF2: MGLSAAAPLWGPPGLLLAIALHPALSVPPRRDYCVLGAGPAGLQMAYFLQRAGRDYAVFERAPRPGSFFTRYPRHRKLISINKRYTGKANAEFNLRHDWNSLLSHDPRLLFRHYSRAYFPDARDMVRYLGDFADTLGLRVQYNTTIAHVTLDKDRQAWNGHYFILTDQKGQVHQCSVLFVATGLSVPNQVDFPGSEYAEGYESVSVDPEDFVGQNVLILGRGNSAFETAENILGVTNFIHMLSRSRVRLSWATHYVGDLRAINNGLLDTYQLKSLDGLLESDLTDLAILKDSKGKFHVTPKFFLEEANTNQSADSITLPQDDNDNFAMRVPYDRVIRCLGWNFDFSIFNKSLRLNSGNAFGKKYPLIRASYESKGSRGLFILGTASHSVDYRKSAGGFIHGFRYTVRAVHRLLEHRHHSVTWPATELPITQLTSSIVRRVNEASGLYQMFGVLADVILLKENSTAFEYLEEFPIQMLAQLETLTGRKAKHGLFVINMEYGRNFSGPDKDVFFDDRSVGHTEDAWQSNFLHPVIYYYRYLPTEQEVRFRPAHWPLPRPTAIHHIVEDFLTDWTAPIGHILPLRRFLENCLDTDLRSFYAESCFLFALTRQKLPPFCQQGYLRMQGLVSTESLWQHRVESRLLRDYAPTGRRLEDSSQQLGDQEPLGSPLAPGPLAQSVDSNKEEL
UniProt P25445, whole entry: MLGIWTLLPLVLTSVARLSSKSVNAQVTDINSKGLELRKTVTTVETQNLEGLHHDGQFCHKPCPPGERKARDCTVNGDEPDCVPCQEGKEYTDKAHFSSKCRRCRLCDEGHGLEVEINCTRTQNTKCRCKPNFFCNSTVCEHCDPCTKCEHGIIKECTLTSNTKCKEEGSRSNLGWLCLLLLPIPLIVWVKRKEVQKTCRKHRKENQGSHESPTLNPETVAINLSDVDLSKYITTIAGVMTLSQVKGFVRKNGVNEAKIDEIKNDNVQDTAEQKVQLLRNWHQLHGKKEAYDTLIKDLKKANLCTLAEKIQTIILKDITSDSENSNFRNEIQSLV
UniProt Q9Y2C4: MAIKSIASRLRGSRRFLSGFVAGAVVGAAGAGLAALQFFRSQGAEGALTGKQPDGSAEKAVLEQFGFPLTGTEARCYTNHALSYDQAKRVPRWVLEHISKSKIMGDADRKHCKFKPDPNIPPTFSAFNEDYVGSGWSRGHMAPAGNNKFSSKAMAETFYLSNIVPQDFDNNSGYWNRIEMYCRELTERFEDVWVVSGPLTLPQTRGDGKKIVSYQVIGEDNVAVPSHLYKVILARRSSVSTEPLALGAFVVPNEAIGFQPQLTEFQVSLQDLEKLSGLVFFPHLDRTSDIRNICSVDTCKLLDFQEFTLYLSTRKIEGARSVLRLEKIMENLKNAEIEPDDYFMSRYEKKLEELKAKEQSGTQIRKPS
UniProt P02792: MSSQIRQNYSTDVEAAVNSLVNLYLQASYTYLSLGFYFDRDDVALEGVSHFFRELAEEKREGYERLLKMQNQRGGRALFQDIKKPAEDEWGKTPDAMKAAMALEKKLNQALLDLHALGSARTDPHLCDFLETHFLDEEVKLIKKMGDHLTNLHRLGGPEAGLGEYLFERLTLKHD
UniProt P38117: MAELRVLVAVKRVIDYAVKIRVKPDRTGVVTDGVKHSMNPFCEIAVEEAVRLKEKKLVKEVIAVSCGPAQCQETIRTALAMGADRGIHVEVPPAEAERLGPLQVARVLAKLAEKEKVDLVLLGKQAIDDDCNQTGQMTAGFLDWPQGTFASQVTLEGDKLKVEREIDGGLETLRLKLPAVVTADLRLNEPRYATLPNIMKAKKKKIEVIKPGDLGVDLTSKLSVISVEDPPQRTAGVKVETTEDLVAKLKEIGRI
UniProt Q14254: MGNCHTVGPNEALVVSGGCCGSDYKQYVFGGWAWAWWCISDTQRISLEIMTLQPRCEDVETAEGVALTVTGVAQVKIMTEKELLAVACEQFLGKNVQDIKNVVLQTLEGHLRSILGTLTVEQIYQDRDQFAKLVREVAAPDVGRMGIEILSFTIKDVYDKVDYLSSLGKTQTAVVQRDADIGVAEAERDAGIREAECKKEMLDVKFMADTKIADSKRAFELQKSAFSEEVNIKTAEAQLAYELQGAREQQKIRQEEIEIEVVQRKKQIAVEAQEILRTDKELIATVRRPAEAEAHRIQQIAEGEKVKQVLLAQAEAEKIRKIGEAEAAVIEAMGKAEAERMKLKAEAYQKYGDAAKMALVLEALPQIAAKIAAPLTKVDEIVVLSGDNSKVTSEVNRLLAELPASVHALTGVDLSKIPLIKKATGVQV
UniProt Q8TCE6, whole entry: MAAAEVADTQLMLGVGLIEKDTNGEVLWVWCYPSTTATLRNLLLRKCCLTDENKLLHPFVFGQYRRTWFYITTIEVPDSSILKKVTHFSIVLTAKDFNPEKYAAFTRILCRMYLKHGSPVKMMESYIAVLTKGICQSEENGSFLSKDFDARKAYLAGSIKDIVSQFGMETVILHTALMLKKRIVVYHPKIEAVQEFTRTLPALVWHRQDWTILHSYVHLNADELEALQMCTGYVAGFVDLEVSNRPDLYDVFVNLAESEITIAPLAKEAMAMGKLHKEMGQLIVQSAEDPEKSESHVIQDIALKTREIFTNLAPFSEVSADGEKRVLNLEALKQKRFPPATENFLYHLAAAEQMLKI
UniProt Q9UNN5: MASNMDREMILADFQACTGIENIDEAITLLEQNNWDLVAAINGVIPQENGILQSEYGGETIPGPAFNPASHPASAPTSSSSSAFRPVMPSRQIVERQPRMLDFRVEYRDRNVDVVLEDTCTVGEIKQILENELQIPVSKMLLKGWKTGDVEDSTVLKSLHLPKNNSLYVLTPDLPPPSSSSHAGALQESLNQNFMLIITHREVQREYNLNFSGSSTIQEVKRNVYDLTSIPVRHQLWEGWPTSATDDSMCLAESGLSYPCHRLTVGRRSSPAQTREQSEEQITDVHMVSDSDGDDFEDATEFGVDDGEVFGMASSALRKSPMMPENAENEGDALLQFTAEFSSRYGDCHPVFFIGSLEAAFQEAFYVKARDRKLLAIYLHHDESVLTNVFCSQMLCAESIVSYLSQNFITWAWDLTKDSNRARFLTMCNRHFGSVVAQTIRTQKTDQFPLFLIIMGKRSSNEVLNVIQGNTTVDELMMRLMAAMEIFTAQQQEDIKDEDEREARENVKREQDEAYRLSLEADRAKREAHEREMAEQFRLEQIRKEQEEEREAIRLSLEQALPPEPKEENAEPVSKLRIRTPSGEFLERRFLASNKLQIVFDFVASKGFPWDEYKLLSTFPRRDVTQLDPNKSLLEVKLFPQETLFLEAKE

Compound in the assay: COc1ccc(Cn2ccc3ccc(C(=O)NO)cc32)cc1
Nature of the assay: dose-dependent thermal stabilisation call (2D-TPP, DLPTP, 10% FDR) (binary (1 = stabilised)); higher = stabilised by the compound. The conditions noted are these: system: HL-60 intact cells; concentration range 0.04-10 µM.
EXDL2 (UniProt Q9NVH0): the “dose-dependent thermal stabilisation call” value was inactive: 0.
Under GALM (UniProt Q96C23) stands inactive: 0; under FOXRED2 (UniProt Q8IWF2), inactive: 0.
Turning to FAS (UniProt P25445), the “dose-dependent thermal stabilisation call” value was inactive: 0.
Under EXOG (UniProt Q9Y2C4) stands inactive: 0.
With FTL (UniProt P02792), the “dose-dependent thermal stabilisation call” value is inactive: 0.
In the case of ETFB (UniProt P38117), the “dose-dependent thermal stabilisation call” value is inactive: 0.
On to FLOT2 (UniProt Q14254), for which the “dose-dependent thermal stabilisation call” value is inactive: 0.
As to FAM45A (UniProt Q8TCE6), the “dose-dependent thermal stabilisation call” value is inactive: 0.
As for FAF1 (UniProt Q9UNN5), the “dose-dependent thermal stabilisation call” value is inactive: 0.

Source of the values: the supplement of paper PMC7666118.
